Values quoted from earlier work in patent publication US20120064159A1, “Multilayer Oral Tablets Containing a Non-Steroidal Anti-Inflammatory Drug and/or Acetaminophen” (Aptapharma, Inc., priority 2009, published 2012).

Conditions: reportedly required

Plasma naproxen concentrations required for anti-inflammatory or analgesic effects: 30 to 90 µg/mL
Structure (SMILES): COc1ccc2cc([C@H](C)C(=O)O)ccc2c1 [naproxen, (S)-6-methoxy-methyl-2-naphthaleneacetic acid]
